Laboratory results as given in PMC5025801.
No constants are given. Whether binding was seen depends on the method and setting. In cells and extracts the contact can be indirect. Some binding calls cover weakened binding; strength is not graded here. Each block holds one molecule with its values, some of them ahead of it.

Protein sequences, listed by entry. Tags and fused reporters are not part of them. Residues count along the entry.
UniProt P07766, residues 23-207: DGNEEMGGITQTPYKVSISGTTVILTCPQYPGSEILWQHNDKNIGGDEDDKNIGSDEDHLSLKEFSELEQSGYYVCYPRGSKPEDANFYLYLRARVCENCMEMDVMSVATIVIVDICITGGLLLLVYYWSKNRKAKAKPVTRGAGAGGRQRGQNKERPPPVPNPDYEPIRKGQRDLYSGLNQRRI

Biological target: T1, Oxysterol-binding protein (OSBP)-related protein 4, long variant (ORP4L) (human (endogenous in Jurkat)) (UniProt Q969R2)
T1 sequence: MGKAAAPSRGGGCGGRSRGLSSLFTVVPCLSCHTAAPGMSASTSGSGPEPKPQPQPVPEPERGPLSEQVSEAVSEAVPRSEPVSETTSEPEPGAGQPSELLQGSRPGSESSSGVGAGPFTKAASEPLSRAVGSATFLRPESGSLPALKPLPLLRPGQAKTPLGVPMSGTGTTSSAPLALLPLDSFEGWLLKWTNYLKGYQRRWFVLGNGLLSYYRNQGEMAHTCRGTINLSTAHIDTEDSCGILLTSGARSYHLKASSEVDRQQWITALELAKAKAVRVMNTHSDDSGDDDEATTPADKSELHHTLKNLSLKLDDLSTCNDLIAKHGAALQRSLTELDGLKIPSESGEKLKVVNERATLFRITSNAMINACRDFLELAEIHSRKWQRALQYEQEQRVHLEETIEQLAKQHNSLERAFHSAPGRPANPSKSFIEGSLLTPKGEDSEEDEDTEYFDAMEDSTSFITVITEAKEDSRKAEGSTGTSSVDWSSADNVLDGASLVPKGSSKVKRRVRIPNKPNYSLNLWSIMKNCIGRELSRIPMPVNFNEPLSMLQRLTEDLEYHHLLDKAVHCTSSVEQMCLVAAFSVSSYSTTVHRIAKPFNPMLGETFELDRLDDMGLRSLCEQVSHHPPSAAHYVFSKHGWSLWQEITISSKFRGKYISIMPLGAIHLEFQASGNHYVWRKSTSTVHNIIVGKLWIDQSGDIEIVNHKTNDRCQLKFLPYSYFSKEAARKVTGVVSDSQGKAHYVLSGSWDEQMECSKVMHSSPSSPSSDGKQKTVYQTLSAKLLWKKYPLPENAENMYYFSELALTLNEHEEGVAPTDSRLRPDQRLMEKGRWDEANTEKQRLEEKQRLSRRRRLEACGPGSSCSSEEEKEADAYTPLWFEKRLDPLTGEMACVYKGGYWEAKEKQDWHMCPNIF
Assay: co-IP; anti-ORP4L immunoprecipitates of Jurkat T-cell lysates, western blot for PLCβ3, Gαq/11 and CD3ɛ; cells without or with 10 μg/ml anti-CD3 for the indicated times

binding: binds
Molecule: CD3ɛ (from UniProt P07766 23-207)

binding: binds
B1: PLCβ3 (enzyme, UniProt Q01970 1-1234)
chain: MAGAQPGVHALQLEPPTVVETLRRGSKFIKWDEETSSRNLVTLRVDPNGFFLYWTGPNMEVDTLDISSIRDTRTGRYARLPKDPKIREVLGFGGPDARLEEKLMTVVSGPDPVNTVFLNFMAVQDDTAKVWSEELFKLAMNILAQNASRNTFLRKAYTKLKLQVNQDGRIPVKNILKMFSADKKRVETALESCGLKFNRSESIRPDEFSLEIFERFLNKLCLRPDIDKILLEIGAKGKPYLTLEQLMDFINQKQRDPRLNEVLYPPLRPSQARLLIEKYEPNQQFLERDQMSMEGFSRYLGGEENGILPLEALDLSTDMTQPLSAYFINSSHNTYLTAGQLAGTSSVEMYRQALLWGCRCVELDVWKGRPPEEEPFITHGFTMTTEVPLRDVLEAIAETAFKTSPYPVILSFENHVDSAKQQAKMAEYCRSIFGDALLIEPLDKYPLAPGVPLPSPQDLMGRILVKNKKRHRPSAGGPDSAGRKRPLEQSNSALSESSAATEPSSPQLGSPSSDSCPGLSNGEEVGLEKPSLEPQKSLGDEGLNRGPYVLGPADREDEEEDEEEEEQTDPKKPTTDEGTASSEVNATEEMSTLVNYIEPVKFKSFEAARKRNKCFEMSSFVETKAMEQLTKSPMEFVEYNKQQLSRIYPKGTRVDSSNYMPQLFWNVGCQLVALNFQTLDVAMQLNAGVFEYNGRSGYLLKPEFMRRPDKSFDPFTEVIVDGIVANALRVKVISGQFLSDRKVGIYVEVDMFGLPVDTRRKYRTRTSQGNSFNPVWDEEPFDFPKVVLPTLASLRIAAFEEGGKFVGHRILPVSAIRSGYHYVCLRNEANQPLCLPALLIYTEASDYIPDDHQDYAEALINPIKHVSLMDQRARQLAALIGESEAQAGQETCQDTQSQQLGSQPSSNPTPSPLDASPRRPPGPTTSPASTSLSSPGQRDDLIASILSEVAPTPLDELRGHKALVKLRSRQERDLRELRKKHQRKAVTLTRRLLDGLAQAQAEGRCRLRPGALGGAADVEDTKEGEDEAKRYQEFQNRQVQSLLELREAQVDAEAQRRLEHLRQALQRLREVVLDANTTQFKRLKEMNEREKKELQKILDRKRHNSISEAKMRDKHKKEAELTEINRRHITESVNSIRRLEEAQKQRHDRLVAGQQQVLQQLAEEEPKLLAQLAQECQEQRARLPQEIRRSLLGEMPEGLGDGPLVACASNGHAPGSSGHLSGADSESQEENTQL
